Test results: article PMC7853424
Results are given in words; binding and its absence hold for the method and conditions named. Some results given as binding are weak or reduced against the parent protein; the word gives no strength. Where a sequence is shown, tags or fusion partners need not be part of it.

Protein sequences, listed by entry. Tags and fused reporters are not part of them. Lines headed by an entry give the natural chain unless they say otherwise; changes in a name come on top. Chains listed by the source or under a name are the forms on record and can include a tag or linker. Residues count along the entry.
TetR-Sth1(301-1097)-Flag, wild type, as in the SAR complex (P32597, residues 301-1097): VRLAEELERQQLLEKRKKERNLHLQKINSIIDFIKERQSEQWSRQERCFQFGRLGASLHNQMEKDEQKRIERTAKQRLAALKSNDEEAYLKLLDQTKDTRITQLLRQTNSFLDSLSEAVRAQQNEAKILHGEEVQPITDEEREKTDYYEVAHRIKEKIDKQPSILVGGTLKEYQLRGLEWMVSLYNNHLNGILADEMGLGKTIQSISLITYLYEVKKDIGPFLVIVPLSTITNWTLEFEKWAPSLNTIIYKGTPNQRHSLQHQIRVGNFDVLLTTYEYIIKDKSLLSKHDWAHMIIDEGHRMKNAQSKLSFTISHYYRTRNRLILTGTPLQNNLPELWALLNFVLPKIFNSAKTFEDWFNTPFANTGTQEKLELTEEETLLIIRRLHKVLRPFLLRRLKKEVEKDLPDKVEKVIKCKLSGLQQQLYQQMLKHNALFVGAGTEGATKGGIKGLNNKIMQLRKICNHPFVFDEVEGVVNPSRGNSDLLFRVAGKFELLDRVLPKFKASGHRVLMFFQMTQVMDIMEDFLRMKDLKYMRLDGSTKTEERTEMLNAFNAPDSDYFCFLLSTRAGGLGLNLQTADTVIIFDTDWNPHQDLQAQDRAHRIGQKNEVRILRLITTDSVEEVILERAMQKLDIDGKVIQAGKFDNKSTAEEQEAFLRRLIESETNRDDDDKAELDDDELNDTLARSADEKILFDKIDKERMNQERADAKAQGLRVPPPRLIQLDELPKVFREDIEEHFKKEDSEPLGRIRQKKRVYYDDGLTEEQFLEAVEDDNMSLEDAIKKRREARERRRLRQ
TetR-Sth1(301-1097)-Flag F945A, as in the SAR complex (P32597, form named): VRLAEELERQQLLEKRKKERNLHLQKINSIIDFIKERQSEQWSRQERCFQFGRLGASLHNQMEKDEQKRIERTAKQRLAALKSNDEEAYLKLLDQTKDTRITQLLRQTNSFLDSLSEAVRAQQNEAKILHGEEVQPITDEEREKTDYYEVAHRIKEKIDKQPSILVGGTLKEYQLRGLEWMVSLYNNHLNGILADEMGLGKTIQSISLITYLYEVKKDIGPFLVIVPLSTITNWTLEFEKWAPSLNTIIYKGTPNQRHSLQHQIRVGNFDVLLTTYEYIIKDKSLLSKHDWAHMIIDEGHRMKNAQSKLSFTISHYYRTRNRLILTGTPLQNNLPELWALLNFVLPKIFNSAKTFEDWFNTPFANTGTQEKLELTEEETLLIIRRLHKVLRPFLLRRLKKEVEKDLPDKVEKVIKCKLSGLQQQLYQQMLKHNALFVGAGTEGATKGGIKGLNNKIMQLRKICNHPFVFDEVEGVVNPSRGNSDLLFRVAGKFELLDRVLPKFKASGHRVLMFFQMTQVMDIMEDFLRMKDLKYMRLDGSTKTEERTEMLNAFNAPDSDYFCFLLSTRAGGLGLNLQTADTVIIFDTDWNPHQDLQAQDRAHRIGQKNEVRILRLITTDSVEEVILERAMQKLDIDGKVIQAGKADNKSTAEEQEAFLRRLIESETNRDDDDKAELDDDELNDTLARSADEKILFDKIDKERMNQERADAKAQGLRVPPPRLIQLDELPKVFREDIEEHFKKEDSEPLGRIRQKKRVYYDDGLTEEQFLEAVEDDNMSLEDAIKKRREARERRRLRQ
TetR-Sth1(301-1097)-Flag H687A, as in the SAR complex (P32597, form named): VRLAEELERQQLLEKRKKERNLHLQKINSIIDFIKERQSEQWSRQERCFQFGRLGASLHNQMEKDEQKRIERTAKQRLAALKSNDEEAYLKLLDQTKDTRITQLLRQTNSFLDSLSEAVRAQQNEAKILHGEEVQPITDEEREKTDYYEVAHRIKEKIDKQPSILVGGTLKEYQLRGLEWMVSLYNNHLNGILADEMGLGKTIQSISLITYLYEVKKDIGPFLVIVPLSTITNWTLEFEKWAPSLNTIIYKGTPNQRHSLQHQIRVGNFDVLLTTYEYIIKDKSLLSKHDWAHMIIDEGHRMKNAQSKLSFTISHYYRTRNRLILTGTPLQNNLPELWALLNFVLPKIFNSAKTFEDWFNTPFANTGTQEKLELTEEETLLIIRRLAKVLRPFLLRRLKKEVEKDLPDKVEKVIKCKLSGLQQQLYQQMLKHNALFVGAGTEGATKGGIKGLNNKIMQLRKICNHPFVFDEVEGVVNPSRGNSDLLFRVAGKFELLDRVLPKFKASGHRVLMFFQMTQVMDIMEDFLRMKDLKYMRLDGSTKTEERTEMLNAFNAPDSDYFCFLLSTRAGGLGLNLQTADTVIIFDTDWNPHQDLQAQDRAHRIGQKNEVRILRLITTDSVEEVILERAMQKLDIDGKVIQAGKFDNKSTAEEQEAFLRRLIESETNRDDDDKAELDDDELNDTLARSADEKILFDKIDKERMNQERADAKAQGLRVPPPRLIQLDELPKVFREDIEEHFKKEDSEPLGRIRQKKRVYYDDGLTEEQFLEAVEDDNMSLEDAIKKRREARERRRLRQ
TetR-Sth1(301-1097)-Flag Q954A, as in the SAR complex (P32597, form named): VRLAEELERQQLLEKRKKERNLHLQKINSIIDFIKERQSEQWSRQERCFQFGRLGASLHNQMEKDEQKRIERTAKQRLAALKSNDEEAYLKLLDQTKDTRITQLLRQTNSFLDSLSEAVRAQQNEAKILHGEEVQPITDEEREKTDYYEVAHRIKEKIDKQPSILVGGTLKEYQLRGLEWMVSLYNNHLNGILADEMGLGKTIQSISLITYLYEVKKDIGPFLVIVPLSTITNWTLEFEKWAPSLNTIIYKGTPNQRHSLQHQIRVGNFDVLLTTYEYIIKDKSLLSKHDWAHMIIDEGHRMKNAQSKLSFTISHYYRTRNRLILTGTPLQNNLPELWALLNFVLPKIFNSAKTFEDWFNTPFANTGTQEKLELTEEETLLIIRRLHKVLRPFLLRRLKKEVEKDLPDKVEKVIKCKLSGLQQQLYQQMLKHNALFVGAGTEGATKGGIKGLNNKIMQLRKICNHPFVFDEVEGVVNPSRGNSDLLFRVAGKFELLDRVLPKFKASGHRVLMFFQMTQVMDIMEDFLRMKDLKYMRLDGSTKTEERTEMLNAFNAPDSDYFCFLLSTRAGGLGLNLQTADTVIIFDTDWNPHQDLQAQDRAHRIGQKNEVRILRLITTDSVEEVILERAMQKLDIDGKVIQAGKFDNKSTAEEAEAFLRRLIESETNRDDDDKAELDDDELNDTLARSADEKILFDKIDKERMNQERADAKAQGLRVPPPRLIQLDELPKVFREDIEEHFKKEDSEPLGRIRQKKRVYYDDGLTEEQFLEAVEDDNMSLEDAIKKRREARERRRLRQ
TetR-Sth1(301-1097)-Flag R684A, as in the SAR complex (P32597, form named): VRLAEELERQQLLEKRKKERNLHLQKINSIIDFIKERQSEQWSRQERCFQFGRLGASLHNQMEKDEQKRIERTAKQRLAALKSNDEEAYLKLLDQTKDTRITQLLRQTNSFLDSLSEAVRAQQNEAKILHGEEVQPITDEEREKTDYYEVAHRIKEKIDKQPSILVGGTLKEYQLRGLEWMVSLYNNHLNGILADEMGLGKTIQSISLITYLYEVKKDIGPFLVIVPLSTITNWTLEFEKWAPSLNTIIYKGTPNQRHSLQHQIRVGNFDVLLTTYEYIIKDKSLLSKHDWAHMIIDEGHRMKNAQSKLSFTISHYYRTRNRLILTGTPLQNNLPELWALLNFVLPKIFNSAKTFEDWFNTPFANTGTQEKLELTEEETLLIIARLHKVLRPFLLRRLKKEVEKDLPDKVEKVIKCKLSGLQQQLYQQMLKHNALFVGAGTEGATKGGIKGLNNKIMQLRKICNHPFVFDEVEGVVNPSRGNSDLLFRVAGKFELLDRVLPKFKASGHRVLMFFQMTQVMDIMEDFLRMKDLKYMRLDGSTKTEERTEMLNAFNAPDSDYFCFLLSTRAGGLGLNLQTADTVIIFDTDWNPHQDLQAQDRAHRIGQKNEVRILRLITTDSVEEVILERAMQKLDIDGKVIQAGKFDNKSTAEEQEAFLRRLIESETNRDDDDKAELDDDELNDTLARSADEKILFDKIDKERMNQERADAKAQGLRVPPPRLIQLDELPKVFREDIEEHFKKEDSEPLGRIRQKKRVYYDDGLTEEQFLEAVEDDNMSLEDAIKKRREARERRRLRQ
UniProt Q12406: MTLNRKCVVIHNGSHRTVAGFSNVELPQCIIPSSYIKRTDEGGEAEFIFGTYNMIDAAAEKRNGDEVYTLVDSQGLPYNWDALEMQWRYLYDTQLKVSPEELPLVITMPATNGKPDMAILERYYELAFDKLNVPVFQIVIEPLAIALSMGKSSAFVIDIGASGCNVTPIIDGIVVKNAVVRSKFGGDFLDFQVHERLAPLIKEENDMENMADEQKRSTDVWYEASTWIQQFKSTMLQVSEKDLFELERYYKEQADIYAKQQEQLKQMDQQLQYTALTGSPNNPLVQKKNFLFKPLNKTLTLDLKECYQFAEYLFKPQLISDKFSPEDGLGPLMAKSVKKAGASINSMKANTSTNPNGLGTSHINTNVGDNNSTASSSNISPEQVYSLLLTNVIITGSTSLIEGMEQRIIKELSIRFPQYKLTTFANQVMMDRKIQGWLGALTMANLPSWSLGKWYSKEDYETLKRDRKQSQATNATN
UniProt Q05123: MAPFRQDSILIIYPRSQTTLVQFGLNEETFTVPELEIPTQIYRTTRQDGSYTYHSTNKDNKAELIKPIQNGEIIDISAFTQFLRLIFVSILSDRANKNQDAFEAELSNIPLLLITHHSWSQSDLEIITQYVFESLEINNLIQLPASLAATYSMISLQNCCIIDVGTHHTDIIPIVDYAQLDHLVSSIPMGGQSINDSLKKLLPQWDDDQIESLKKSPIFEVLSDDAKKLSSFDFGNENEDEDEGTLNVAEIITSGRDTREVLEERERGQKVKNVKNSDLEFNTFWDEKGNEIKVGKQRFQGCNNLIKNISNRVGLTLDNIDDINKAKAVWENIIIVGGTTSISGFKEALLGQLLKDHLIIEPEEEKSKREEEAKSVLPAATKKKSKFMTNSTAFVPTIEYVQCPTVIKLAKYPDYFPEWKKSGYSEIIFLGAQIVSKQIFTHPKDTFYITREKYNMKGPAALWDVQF

How the values were obtained:
Test in all cases: co-purification of co-expressed proteins (Ni-NTA, anti-Flag affinity, gel filtration); co-expression in E. coli; extract on nickel-NTA agarose (TetR-(His)7), eluate on anti-Flag M2 gel eluted with 3x Flag peptide, then two S200GL 10/300 columns in series; complexes homogeneous and monodisperse
[1] = target: TetR-Sth1(301-1097)-Flag F945A, as in the SAR complex (S. cerevisiae) (UniProt P32597)
[2] = target: TetR-Sth1(301-1097)-Flag H687A, as in the SAR complex (S. cerevisiae) (UniProt P32597)
[3] = target: TetR-Sth1(301-1097)-Flag Q954A, as in the SAR complex (S. cerevisiae) (UniProt P32597)
[4] = target: TetR-Sth1(301-1097)-Flag R684A, as in the SAR complex (S. cerevisiae) (UniProt P32597)
[5] = target: TetR-Sth1(301-1097)-Flag, wild type, as in the SAR complex (S. cerevisiae) (UniProt P32597)

Measured: binding

Arp7 (from UniProt Q12406 1-477)
binds: all assays above

Arp9 (from UniProt Q05123 1-467)
binds: all assays above

B1: Rtt102-S-tag (protein, UniProt P53330 1-157)
chain: MDPQTLITKANKVSYYGNPTSKESWRYDWYQPSKVSSNVQQPQQQLGDMENNLEKYPFRYKTWLRNQEDEKNLQRESCEDILDLKEFDRRILKKSLMTSHTKGDTSKATGAPSANQGDEALSVDDIRGAVGNSEAIPGLSAGVNNDNTKESKDVKMN
binds: all assays above
